Results from doi:10.1101/2020.07.02.184341.
Residue numbers refer to the chain shown, from its start. Names and notes keep the numbering of the source. No constants are given. Whether binding was seen depends on the method and setting. For some assays here: Binding seen in cells or lysates may run through a third protein. Some binding calls cover weakened binding; strength is not graded here. For some assays here: Where a sequence is shown, tags or fusion partners need not be part of it. Blank lines part the entries; values can stand above or below the binder they belong to.

Legend:
[1] = target: T1, CsrA (wild type), co-expressed with FliW in B. subtilis (B. subtilis) (UniProt P33911); test: cross-linking
T1 sequence: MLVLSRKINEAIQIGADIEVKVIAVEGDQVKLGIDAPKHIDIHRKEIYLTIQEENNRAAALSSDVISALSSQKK

[2] = target: T2, CsrA^D41K, co-expressed with FliW or FliW^K123E in B. subtilis (B. subtilis) (UniProt P33911); test: cross-linking
T2 sequence: T1 sequence with D41K

[3] = target: T3, GST tagged CsrA (GST-CsrA^WT) (B. subtilis) (UniProt P33911); test: pull-down
T3 sequence: T1 sequence

[4] = target: T4, GST-CsrA^D41K (B. subtilis) (UniProt P33911); test: pull-down
T4 sequence: T1 sequence with D41K

binding [1]: binds | binding [2]: binds
B1: FliW (wild type), co-expressed with CsrA in B. subtilis (protein, UniProt P96503 1-143)
chain: MIIHTKYHGQMNIKEEQIILFESGIPGFLEEKQFVILPLSEDSPFVALQSVTSENLAFIVVSPFIFFKNYEFDLDESTAELLDIDNIQDVEVMTILTMAEPFEKSTANLLAPIIVNRKNMMAKQVVLHDSSYTTKHPIGGESC

binding [3]: no binding (tested: 0.5 μM)
B2: purified FliW^N108Y (protein, UniProt P96503 1-143)
chain: B1 chain with N108Y

binding [1]: binds
B3: FliW^A122V, co-expressed with CsrA in B. subtilis (protein, UniProt P96503 1-143)
chain: B1 chain with A122V

binding [1]: binds | binding [2]: binds
B4: FliW^K123E, co-expressed with CsrA or CsrA^D41K in B. subtilis (protein, UniProt P96503 1-143)
chain: B1 chain with K123E

binding [3]: no binding (tested: 0.5 μM)
B5: purified FliW^Q124R (protein, UniProt P96503 1-143)
chain: B1 chain with Q124R

binding [4]: binds weakly
B6: purified untagged wild-type FliW (FliW^WT) (protein, UniProt P96503 1-143)
chain: B1 chain
